PubChem BioAssay AID743454, Peter MacCallum Cancer Centre, 2014
Test: 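Knock-downs lowering viability or raising caspase 3/7 activity in vorinostat-treated resistant cells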 (primary screen). System: human HCT116-VR colon cancer cells, selected for vorinostat resistance. Reagent: siRNA pool against human genes, 40 nM siRNA pool. Time to read-out: vorinostat for 24 h, read-out about 72 h after transfection. Conditions: vorinostat at 2.5 µM final. Measured: 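Cell viability by CellTiter-Fluor and caspase 3/7 activity by luminescence, each scaled to mock wells per plate, duplicates averaged, then robust z-scored over all plates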. Scale: viability robust z-score: higher = more viable cells than screen typical; caspase robust z-score: higher = more caspase 3/7 activity than screen typical. Hit rule: 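Hits are knock-downs in viability class RV1/RV2 or caspase class CA1/CA2, excluding ones that killed cells in the no-drug cell-count arm; hits then retested with single siRNAs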.
In all, the deposit lists about 18,000 reagents; shown is a random part of them. In the full data, 450 (2.5%) are marked active. 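Single biological run; no consistent viability z cut-off exists, so the class columns, not z-scores, define the calls.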 Entries without a mark were called inactive.

gene knocked down	viability hit class	caspase hit class	viability robust z-score	caspase robust z-score
IL17RD	no change	no change	0.13	1.03
ELAPOR2	no change	no change	-0.32	-0.63
KIR2DL5A	no change	no change	0.21	-0.89
SPINK7	no change	no change	0.22	1.98
SMARCA4	no change	no change	1.47	0.09
EDN1	no change	no change	-0.18	-0.57
GPATCH3	no change	no change	-1.27	1.08
ONECUT2	no change	no change	-0.83	-0.52
ZNF423	no change	no change	0.26	-0.68
PIAS4	no change	no change	-1.76	1.84
KRT39	no change	no change	0.26	-0.08
NTNG2	no change	no change	-0.61	0.96
CDC25B	no change	no change	0.12	-0.14
ZNF236	no change	no change	-0.12	-1.18
PDSS2	no change	no change	0.84	-0.34
NDE1	no change	no change	-3.91	0.34
EPB41L4A	no change	no change	0.52	-0.66
HDAC3	no change	no change	-0.91	-0.14
TM4SF5	no change	no change	0.9	0.22
PRSS2	no change	no change	0.46	-0.24
GABRG1	no change	no change	0.2	1.76
TANK	no change	no change	1.38	2.48
LHX9	no change	no change	0.18	-0.03
PGD	no change	no change	-0.62	-0.7
COL18A1-AS1	no change	no change	-2.37	-0.52
TRADD	no change	no change	0.02	0.05
PTPRZ1	no change	no change	-0.03	1.18
IGSF21	no change	no change	0.33	-0.65
ZDHHC16	no change	no change	-0.45	3.26
DPY19L3	no change	no change	-0.55	0.82
PADI1	no change	no change	0.04	-0.4
NEUROD1	no change	no change	-0.51	0.5
RPRM	no change	no change	0.41	3.09
ZNF239	no change	no change	0.22	0.11
DNLZ	no change	no change	-0.86	0.4
INO80E	no change	no change	-0.41	-0.52
OR3A4P	no change	no change	0.29	2.29
TRAF2	no change	no change	-2.31	-0.07
KLHL28	no change	no change	0.54	-0.28

6 entries already listed, ordered by “viability robust z-score”, high to low:
gene knocked down	viability hit class	caspase hit class	viability robust z-score	caspase robust z-score
TANK	no change	no change	1.38	2.48
TM4SF5	no change	no change	0.9	0.22
EPB41L4A	no change	no change	0.52	-0.66
PRSS2	no change	no change	0.46	-0.24
GABRG1	no change	no change	0.2	1.76
HDAC3	no change	no change	-0.91	-0.14
